The values that follow come from paper PMC5014341.

Amino acid sequences for entries named in this document (tags omitted). Residues count along the entry.
UniProt P9WIN9, residues 25-228: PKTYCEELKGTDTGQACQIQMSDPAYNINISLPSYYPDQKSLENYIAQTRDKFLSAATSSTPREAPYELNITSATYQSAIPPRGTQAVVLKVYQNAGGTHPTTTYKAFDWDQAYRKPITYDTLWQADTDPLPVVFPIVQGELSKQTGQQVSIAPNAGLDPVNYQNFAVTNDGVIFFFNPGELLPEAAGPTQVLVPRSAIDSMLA

No constants are given. Whether binding was seen depends on the method and setting. For some assays here: Binding seen in cells or lysates may run through a third protein. For some assays here: Where a sequence is shown, tags or fusion partners need not be part of it.

Assay [1] has as its target 6xHis-Rv1980c (M. tuberculosis) (UniProt P9WIN9). Kind of assay: pull-down.
Assay [2] deals with T1, 6xHis-2xFlag-RsiV^(59-285, S169W, P259A, Y261A) (B. subtilis) (UniProt O05403).
T1 sequence: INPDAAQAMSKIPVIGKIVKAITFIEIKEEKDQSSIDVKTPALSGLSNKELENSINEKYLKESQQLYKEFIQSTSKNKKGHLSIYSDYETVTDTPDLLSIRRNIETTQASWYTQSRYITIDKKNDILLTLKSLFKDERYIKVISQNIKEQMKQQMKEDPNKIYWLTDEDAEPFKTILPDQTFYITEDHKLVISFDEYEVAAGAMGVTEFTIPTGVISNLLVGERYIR
Kind of assay: ITC; HEW lysozyme (0.1 mM) injected into 6xHis-2xFlag-RsiV^59-285 or mutant (0.01 mM) in the cell; 50 mM Na2HPO4, 200 mM NaCl, pH 7.0; 25°C; single site binding model; averaged from three runs from two protein preps; both purified.

As to “hen egg white (HEW) lysozyme (from UniProt P00698 19-147) (enzyme)”, the binding result in assay [1] is recorded as “no binding”; in assay [2], “no binding (tested: >50 μM)”.
